Assay results reported in paper PMC10739146.
No constants are given. Whether binding was seen depends on the method and setting. In cells and extracts the contact can be indirect. Some entries that bind do so weakly or less than the wild type. Sequences can lack the tags named with a protein.

Tests used:
[1] = biological target: T1, Rim21-HA (WT) (S. cerevisiae) (UniProt P48565); test: co-IP; YOK3632 (rim21Δ DFG16-FLAG) cells with Rim21-HA vectors; lysis buffer 50 mM Tris-HCl pH 7.5, 150 mM NaCl, 1 mM DTT; solubilised with 1% Triton X-100 at 4°C; immunoprecipitated with anti-HA 3F10 and Protein G magnetic beads, 4°C, 90 min; blotted with anti-HA and anti-FLAG
T1 sequence (chain, N-glycosylation at N15): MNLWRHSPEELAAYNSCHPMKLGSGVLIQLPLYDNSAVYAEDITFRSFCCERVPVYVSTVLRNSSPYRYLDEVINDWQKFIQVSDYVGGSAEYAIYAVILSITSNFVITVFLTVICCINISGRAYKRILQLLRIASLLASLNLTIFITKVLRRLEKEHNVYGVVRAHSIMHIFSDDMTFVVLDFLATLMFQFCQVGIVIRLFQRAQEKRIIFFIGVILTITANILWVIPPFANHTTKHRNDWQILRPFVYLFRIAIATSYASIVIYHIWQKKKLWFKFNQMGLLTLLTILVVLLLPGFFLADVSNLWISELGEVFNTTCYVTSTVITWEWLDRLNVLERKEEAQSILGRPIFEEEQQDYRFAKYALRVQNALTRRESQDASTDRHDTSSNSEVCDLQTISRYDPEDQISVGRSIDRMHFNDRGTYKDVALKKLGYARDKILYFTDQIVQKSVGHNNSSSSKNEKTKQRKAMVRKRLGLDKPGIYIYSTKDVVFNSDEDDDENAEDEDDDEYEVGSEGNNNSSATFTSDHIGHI

[2] = biological target: T2, Rim21-N15Q-HA (S. cerevisiae) (UniProt P48565); test: as above
T2 sequence: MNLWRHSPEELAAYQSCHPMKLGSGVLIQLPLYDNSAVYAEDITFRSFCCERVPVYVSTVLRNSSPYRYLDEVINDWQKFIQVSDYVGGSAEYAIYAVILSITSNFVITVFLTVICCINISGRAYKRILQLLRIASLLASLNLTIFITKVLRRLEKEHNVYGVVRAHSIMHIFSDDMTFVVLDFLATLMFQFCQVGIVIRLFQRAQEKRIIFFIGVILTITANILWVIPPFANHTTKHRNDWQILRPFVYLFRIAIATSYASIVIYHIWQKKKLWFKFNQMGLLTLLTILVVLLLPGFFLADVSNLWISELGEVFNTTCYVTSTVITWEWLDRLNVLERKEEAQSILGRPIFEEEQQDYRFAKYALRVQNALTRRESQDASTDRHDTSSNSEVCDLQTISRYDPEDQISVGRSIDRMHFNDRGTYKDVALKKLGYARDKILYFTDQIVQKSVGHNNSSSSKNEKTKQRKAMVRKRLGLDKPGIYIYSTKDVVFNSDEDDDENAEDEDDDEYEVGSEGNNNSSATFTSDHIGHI

B1: Dfg16-FLAG (protein, UniProt Q99234 1-619)
chain: MIIRLHFYYLLTLVYHLGLVGAYEKAARKRIQPPDLIPGPPGHKLGDERPPHYDHRPPYKKHIDNIPAYNLTDLIDDKLLNKYENSCTVNVLTGGFISLASNSWHLRAYNYTLNYPSFLIRCDNGSANPNFSHVLQDFVYDINNKFNVQDDSSKYIGKDPFPLGMIMITFASGCICVATWMLFLVVLLLPSDNHNRRNKVVHVYVLFSAIIRTVFLNETIAVIFDSQYHDDYQDASQFESFIVETAPYKICELVANILSDINWIYIVHYLQSNYGKPTWNWIPFKMKKGTHIIITVGCFLSLADNILFANLLWRKNLVVLKVFYKLIELLIYTIFISIICYFTWHNFAYILLPKTAEINTDGKCKTKLRILWENYHETIPLLAYNILIFILFYFTTIFFAAFTKHVRGWTFNFVHLLKVLITVNVWGLIGVLEKRELHISKKTVLGRKINNRDKFFANPTVNYYGEDLGKHLSAITLNRDLNTTKSNTTSHDSSSLVGSPSPTWKSPIERIRDRRRRHKIMKSENKFGQNPSFGSKSNGKPNTKTTLSKYRQLLRKPRRKTNSYEPKNGIGQNKEGSTVRPGADKHIRDSNYLATDISDNESMETELRTNHIYNYENSD
For B1, the binding [1] was “binds” and the binding [2] was “binds”.
